Assay results published in paper PMC11736009.
Results are given in words; binding and its absence hold for the method and conditions named. Binding seen in cells or lysates may run through a third protein. These calls come from enrichment with a bait or labelling near it, and not all partners need be listed.

Sequences of proteins named here, by UniProt entry; tags and fusion partners are left off. A change or cut given only in a name is not applied to a line headed by its entry.
UniProt Q9Z207: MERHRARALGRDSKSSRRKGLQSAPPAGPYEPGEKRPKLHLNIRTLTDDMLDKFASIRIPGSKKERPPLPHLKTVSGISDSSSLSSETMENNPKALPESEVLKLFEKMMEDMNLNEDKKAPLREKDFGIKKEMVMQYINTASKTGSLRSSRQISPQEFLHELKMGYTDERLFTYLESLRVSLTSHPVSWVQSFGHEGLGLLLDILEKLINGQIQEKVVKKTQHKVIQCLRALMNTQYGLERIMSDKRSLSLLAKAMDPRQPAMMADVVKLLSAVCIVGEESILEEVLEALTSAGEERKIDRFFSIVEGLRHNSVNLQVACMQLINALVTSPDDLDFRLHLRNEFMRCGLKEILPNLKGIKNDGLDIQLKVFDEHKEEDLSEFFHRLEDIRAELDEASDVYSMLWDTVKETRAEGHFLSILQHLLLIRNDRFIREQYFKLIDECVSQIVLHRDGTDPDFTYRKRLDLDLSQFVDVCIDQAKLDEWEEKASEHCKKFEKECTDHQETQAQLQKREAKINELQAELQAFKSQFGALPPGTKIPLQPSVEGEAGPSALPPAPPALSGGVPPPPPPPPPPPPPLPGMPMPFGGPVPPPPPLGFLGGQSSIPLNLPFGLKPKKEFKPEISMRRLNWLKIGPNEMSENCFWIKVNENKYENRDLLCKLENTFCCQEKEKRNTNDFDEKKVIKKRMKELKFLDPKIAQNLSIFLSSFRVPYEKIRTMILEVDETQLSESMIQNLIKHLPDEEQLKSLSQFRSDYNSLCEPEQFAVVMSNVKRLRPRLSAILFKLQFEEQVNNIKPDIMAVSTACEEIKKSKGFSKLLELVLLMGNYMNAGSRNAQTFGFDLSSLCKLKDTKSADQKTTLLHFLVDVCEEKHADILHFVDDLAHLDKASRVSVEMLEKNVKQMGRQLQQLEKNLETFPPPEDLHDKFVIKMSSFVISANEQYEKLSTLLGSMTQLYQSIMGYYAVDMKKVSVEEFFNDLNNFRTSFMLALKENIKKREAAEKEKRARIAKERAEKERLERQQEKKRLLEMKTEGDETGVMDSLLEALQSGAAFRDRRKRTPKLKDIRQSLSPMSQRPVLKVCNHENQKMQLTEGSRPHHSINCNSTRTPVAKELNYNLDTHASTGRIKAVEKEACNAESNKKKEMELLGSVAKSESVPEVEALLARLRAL

Biological target: full-length Diaph3-M1041A-Flag (mouse) (UniProt Q9Z207)
Assay: affinity purification with mass spectrometry; Diaph3-M1041A-Flag overexpressed in HEK293T, 48 h, MG132 for 6 h; immunoprecipitation with Flag antibodies, SDS-PAGE, in-gel trypsin digest, LC-MS/MS; search against UniProt Homo sapiens

binding: binds
B1: Fbxo3 (endogenous, found by mass spectrometry) (protein, UniProt Q9UK99 1-471)
chain: MAAMETETAPLTLESLPTDPLLLILSFLDYRDLINCCYVSRRLSQLSSHDPLWRRHCKKYWLISEEEKTQKNQCWKSLFIDTYSDVGRYIDHYAAIKKAWDDLKKYLEPRCPRMVLSLKEGAREEDLDAVEAQIGCKLPDDYRCSYRIHNGQKLVVPGLLGSMALSNHYRSEDLLDVDTAAGGFQQRQGLKYCLPLTFCIHTGLSQYIAVEAAEGRNKNEVFYQCPDQMARNPAAIDMFIIGATFTDWFTSYVKNVVSGGFPIIRDQIFRYVHDPECVATTGDITVSVSTSFLPELSSVHPPHYFFTYRIRIEMSKDALPEKACQLDSRYWRITNAKGDVEEVQGPGVVGEFPIISPGRVYEYTSCTTFSTTSGYMEGYYTFHFLYFKDKIFNVAIPRFHMACPTFRVSIARLEMGPDEYEEMEEEEEEEEEEDEDDDSADMDESDEDDEEERRRRVFDVPIRRRRCSRLF
